Measurements: PubChem BioAssay AID540276 (National Center for Advancing Translational Sciences (NCATS), 2011)
Where “and” joins values, the source holds several entries; their conditions need not be identical. Equal values may be shown once. About 5,400 (1.8%) of roughly 300,000 compounds were called active. This list was built around the results that the source calls inconclusive (neither active nor inactive); the mix of calls is not that of the screen. The call rests on the fitted dose curve; tested in HEK293 cells. Potencies of inconclusive entries are doubtful fits and often do not repeat.

experiment: qHTS for inhibitors of binding or entry into cells for Marburg Virus; conditions: Marburg virus pseudotyped entry inhibition, cell reporter; series mostly up to 37.8 µM
Potency means the concentration at half of the fitted maximal effect.

SMILES	Potency
C=C(C)CNC(=O)c1ccc2nc(Cc3ccc(OC)cc3)oc2c1	inactive
O=C(CSc1ncnc2ccccc12)Nc1cc(S(=O)(=O)N2CCCCC2)ccc1Cl	inconclusive: 18.4 µM [inhibitor, single point]
CCOc1ccc(C(=O)NC2CCN(C(=O)NCc3ccccc3)CC2)cc1	inconclusive: 10.3 µM [inhibitor, single point]
CCCc1nc2ccccc2c(=O)n1N	inactive
Cc1ccc(NC2=NCC(Cc3ccc(Br)cc3)S2)cc1 (configuration not stated)	inconclusive: 31.6 µM [inhibitor, single point]
O=C(NC1CCCC1)c1ccc2nc(-c3ccco3)c(-c3ccco3)nc2c1	inconclusive: 12.6 µM [inhibitor, partial curve, poor fit]
CCN(CC)c1ccc(NC(=O)COc2ccccc2C)cc1S(=O)(=O)Nc1ccccc1OC	inconclusive: 35.5 µM [inhibitor, partial curve, poor fit]
CCCCSP1(=S)NCCCN1	inactive
CC(/C=N/Nc1nnc2c(n1)[nH]c1ccccc12)=C\c1ccco1	inactive
O=C(NCCOc1ccccc1)c1ccccc1NC(=O)C1CCCO1 (configuration not stated)	inconclusive: 12.6 µM [inhibitor, single point]
COC(=O)c1ccccc1NC(=O)c1ccc(COc2ccccc2)o1	inconclusive: 3.55 µM [inhibitor, partial curve, poor fit]
CC(C)(C)NC(=O)CON=C1c2ccccc2-c2ccccc21	inconclusive: 17.8 µM [inhibitor, single point]
Cc1ccc(-n2nc3cc(C)c(N)cc3n2)cc1	inconclusive: 8.91 µM [inhibitor, partial curve, poor fit]
O=C(NC(=S)Nc1ccccc1N1CCCC1)c1ccc([N+](=O)[O-])cc1	inactive
CC(C)(C)c1ccc(C(=O)N2CCC(C(=O)NC3CCCCCC3)CC2)cc1	inconclusive: 0.891 µM [activator, full curve, poor fit]
CCOc1cc(N2CCOCC2)c(OCC)cc1NC(=O)COc1ccccc1[N+](=O)[O-]	inactive
O=C(CN1CCN(S(=O)(=O)c2ccccc2)CC1)Nc1ccc2c(c1)CCC2	inconclusive: 0.1 µM [inhibitor, partial curve, poor fit]
Cc1nc2cc(-c3ccc(Cl)cc3)nn2c(NCCN(C)C)c1C	inconclusive: 35.5 µM [inhibitor, single point]
Cc1ccc(NC(=S)N2CCN(S(=O)(=O)c3ccc(F)cc3)CC2)cc1	inactive
COc1cc(C(c2c(O)c3ccccc3oc2=O)c2c(C)n(C)n(-c3ccccc3)c2=O)ccc1OCC(=O)O (configuration not stated)	inactive
NCC(=O)Nc1ccc(Br)cc1	inconclusive: 4.47 µM [activator, single point]
C/C(CC(=O)Nc1ccc(OCc2ccccc2)cc1)=N\NC(=O)C(=O)Nc1ccc(C)c(Cl)c1	inconclusive: 2 µM [inhibitor, full curve, poor fit]
Cc1ccc(C(=O)N/C(=C/c2ccc(-c3cccc([N+](=O)[O-])c3)o2)C(=O)NC(C)(C)C)cc1	inconclusive: 3.98 µM [inhibitor, full curve, poor fit]

SMILES	Potency
O=C(CN1CCOCC1)Nc1ccccc1Sc1ccc(Cl)cc1	inconclusive: 17.8 µM [inhibitor, partial curve, poor fit]
CCCNc1nc2c(c(=O)[nH]c(=O)n2C)n1CCC(C)C	inactive
COc1ccc(C(=O)CC(=O)C(=O)Nc2ccc(C)cc2Cl)cc1	inconclusive: 1.26 µM [inhibitor, single point]
C[C@H]1C=CCC(=O)NCc2cccc(c2)CNC(=O)N[C@@H]1c1ccccc1	inconclusive: 0.0211 µM [inhibitor, full curve, poor fit]
Cc1ccc(SCC(=O)Nc2ccc(-c3nnc(-c4ccco4)o3)cc2)cc1	inconclusive: 35.5 µM [inhibitor, single point]
CCOc1ccc(CCNC(=O)COC(=O)COc2ccc(Br)cc2)cc1OCC	inactive
O=C(Nc1cccc(C(F)(F)F)c1)n1cc(-c2ccccn2)c(N2CCOCC2)n1	inactive
O=C(OCN1C(=O)c2ccccc2C1=O)c1cccs1	inconclusive: 3.55 µM [inhibitor, single point]
Cc1cc(NC(=O)Nc2cccc(Cl)c2)n(-c2ccccn2)n1	inconclusive: 35.5 µM [inhibitor, single point]
N#Cc1cc2c(nc1SC1CC(=O)N(c3ccccc3)C1=O)CCC2 (configuration not stated)	inconclusive: 0.447 µM [inhibitor, partial curve, poor fit]
COc1cccc([C@@H]2Oc3ccc(Br)cc3[C@H](O)[C@@H]2O)c1	inconclusive: 5.31 µM [inhibitor, partial curve, poor fit]
Cc1cc(C)c2c(c1)-c1c(ssc1=S)C(C)(C)N2C(=O)CSc1nncn1C	active: 14.1 µM
COc1ccc(C(=O)Nc2cc3c4c(c2)CC(=O)N4CCC3)cc1	inactive
COc1ccc(C(=O)NC(=S)NNC(=O)CCc2ccccc2)cc1	inconclusive: 14.6 µM [inhibitor, partial curve, poor fit]
CCCOc1ccc(C(=O)Nc2ccc(CN3CCOCC3)cc2)cc1	inconclusive: 6.31 µM [inhibitor, full curve]
CC(C(=O)NCC(=O)Nc1ccc(F)c(F)c1F)N1CCN(Cc2ccc(C#N)cc2)CC1 (configuration not stated)	inconclusive: 0.1 µM [activator, full curve, poor fit]
CCOc1cc(CNc2ccc(CNc3ncn[nH]3)cc2)ccc1OCc1ccccc1	inconclusive: 31.6 µM [inhibitor, single point]
Cc1[nH]oc(=O)c1N=Nc1ccccc1	inactive
CCOC(=O)c1cc(C)nn1-c1nc(Cl)cc(OC)n1	inconclusive: 2 µM [activator, single point]
NC(=O)Cn1nnc(-c2ccc(NC(=O)c3ccc(F)cc3)cc2)n1	inactive
COCCCNC(=O)c1ccc2nc(Cc3ccc(OC)cc3)oc2c1	inconclusive: 1 µM [activator, partial curve, poor fit]
N/C(=N\OC(=O)/C=C/c1ccccc1)c1ccc(Cl)cc1	inconclusive: 4.47 µM [activator, partial curve]
Cn1c(O)c(N=NC(=O)c2ccccc2O)c2ccccc21	inconclusive: 35.5 µM [inhibitor, single point]

SMILES	Potency
O=c1[nH]n(-c2ccc(Cl)cc2)c(=O)c(Cl)c1Cl	inactive
CC(=O)N1C2=CCCC3CCCCC23c2ccccc21 (configuration not stated)	inconclusive: 5.62 µM [activator, single point]
COCCNC(=O)CSc1c2c(nc3cc(Cl)ccc13)CCCC2	inconclusive: 35.5 µM [inhibitor, single point]
Cc1ccc(NC(=O)N2N=C(c3ccc(F)cc3)CC2c2ccc(F)cc2)cc1 (configuration not stated)	inactive
O=C(C1CCC(=O)N(C2CCCC2)C1)N1CCC(Oc2cccc(F)c2)CC1 (configuration not stated)	inconclusive: 5.62 µM [inhibitor, partial curve, poor fit]
Cc1nc2ccc(C(=O)OCC(=O)N(C)c3ccccc3)cc2nc1C	inconclusive: 1 µM [activator, full curve, poor fit]
CCN(CC)C(=O)C(Oc1ccc(S(=O)(=O)N2CCCC2)cc1[N+](=O)[O-])c1ccccc1 (configuration not stated)	inconclusive: 14.1 µM [inhibitor, single point]
Cn1c(SCc2ccccc2)nnc1-c1cnccn1	inconclusive: 25.9 µM [activator, single point]
Oc1ccc(-c2nc3ccccn3c2Nc2ccc3c(c2)OCCO3)cc1	inconclusive: 10 µM [activator, partial curve, poor fit]
OCC1(Cc2ccccc2F)CCCN(CCc2ccccc2)C1 (configuration not stated)	inconclusive: 8.91 µM [inhibitor, partial curve, poor fit]
O=C1C(Cl)=C(N2CCCCC2)C(=O)N1Cc1ccccc1	inconclusive: 6.31 µM [activator, single point]
CC(=O)c1cccc(NC(=S)NC(=O)c2ccccc2Br)c1	inactive
Cc1ccc(CN(Cc2ccco2)C(=O)COc2c(C)cc(C)cc2C)cc1	inconclusive: 3.55 µM [inhibitor, partial curve, poor fit]
CCOC(=O)c1c(NC(=O)C2C3C=CC(C3)C2C(=O)O)sc2c1CC(C)CC2 (configuration not stated)	inconclusive: 2.51 µM [inhibitor, single point]
Cc1noc(C)c1CSCC(=O)Nc1ccccc1N1CCCC1	inactive
COc1ccc(CCNC(=S)N2CCN(S(=O)(=O)c3ccccc3F)CC2)cc1	inconclusive: 10 µM [inhibitor, partial curve, poor fit]
Cc1ccccc1CC(=O)Nc1ccc2c(c1)CCC2	inconclusive: 7.08 µM [inhibitor, partial curve, poor fit]
OCCC#Cc1ccc(CN2CCN(Cc3ccccc3)C(CCO)C2)cc1 (configuration not stated)	inconclusive: 10 µM [activator, partial curve]
COc1ccc(-c2csc3nc(-c4ccccc4OC)oc(=O)c23)cc1	inconclusive: 35.5 µM [inhibitor, partial curve, poor fit]
COC(=O)c1ccc(N2NC(=O)/C(=C/c3ccc(-c4ccc(Cl)c(C(=O)O)c4)o3)C2=O)cc1	inconclusive: 2.82 µM [activator, partial curve, poor fit]

Pulled one by one from above:
SMILES	Potency
O=C(CSc1ncnc2ccccc12)Nc1cc(S(=O)(=O)N2CCCCC2)ccc1Cl	inconclusive: 18.4 µM [inhibitor, single point]
C=C(C)CNC(=O)c1ccc2nc(Cc3ccc(OC)cc3)oc2c1	inactive

Three entries already listed, arranged by molecular weight, falling.
SMILES	Potency
COC(=O)c1ccc(N2NC(=O)/C(=C/c3ccc(-c4ccc(Cl)c(C(=O)O)c4)o3)C2=O)cc1	inconclusive: 2.82 µM [activator, partial curve, poor fit]
Cc1ccc(CN(Cc2ccco2)C(=O)COc2c(C)cc(C)cc2C)cc1	inconclusive: 3.55 µM [inhibitor, partial curve, poor fit]
Cn1c(SCc2ccccc2)nnc1-c1cnccn1	inconclusive: 25.9 µM [activator, single point]
